Source: article PMC5587908

Assays:
[1] = biological target: T1, full-length FnBPA on S. aureus FnBPA^(+) cells (S. aureus strain 8325-4) (UniProt P14738); test: single-cell force spectroscopy (AFM); as a5, in the presence of 0.1 mg ml^-1 Fg in the AFM chamber; only the binder purified
T1 sequence: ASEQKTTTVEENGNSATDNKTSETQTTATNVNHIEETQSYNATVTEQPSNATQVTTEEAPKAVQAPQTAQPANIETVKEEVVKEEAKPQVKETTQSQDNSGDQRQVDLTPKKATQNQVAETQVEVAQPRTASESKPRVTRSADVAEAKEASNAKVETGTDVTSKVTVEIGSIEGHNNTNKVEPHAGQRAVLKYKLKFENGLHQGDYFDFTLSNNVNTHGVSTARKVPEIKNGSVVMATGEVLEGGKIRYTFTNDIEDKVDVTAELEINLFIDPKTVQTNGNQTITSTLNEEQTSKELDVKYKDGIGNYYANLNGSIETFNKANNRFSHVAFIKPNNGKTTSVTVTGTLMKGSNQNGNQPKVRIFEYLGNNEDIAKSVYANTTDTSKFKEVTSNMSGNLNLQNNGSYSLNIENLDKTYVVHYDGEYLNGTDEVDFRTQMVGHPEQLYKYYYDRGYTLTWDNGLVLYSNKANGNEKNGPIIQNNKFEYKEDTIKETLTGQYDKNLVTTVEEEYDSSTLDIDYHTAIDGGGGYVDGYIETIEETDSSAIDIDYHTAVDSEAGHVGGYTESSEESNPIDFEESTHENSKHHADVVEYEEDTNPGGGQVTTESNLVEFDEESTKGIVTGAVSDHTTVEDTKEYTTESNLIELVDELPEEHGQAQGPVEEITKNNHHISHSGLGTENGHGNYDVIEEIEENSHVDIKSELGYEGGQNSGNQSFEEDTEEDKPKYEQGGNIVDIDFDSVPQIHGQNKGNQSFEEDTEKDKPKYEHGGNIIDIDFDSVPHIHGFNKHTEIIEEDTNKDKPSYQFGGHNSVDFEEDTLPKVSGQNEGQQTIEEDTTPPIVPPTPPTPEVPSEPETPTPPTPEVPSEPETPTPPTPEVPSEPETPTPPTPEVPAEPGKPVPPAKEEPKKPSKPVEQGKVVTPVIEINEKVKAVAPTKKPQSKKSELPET

[2] = biological target: T1, full-length FnBPA on S. aureus FnBPA^(+) cells (S. aureus strain 8325-4); test: single-molecule force spectroscopy (AFM); as a7, in the presence of 0.1 mg ml^-1 Fg in the AFM chamber; only the binder purified
[3] = biological target: T2, FnBPA (194-336), FnBPAN2 (S. aureus) (UniProt P14738); test: ELISA; competition: FnBPAN2 or FnBPBN3 immobilised on microtiter plates, incubated with Plg in the presence of increasing concentrations of soluble FnBPAN2 or FnBPBN3; binding without inhibitor set to 100%; both purified
T2 sequence: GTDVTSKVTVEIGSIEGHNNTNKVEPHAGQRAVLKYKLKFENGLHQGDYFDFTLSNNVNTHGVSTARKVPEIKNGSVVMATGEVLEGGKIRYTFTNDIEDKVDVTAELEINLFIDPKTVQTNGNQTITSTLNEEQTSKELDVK

[4] = biological target: T2, FnBPA (194-336), FnBPAN2 (S. aureus); test: far-Western, overlay or dot blot; recombinant FnBP proteins boiled in SDS sample buffer, 12.5% PAGE, blotted on nitrocellulose, probed with 1 μg/ml Plg in PBST for 1 h at 22°C, then rabbit anti-Plg and HRP anti-rabbit IgG; both purified
[5] = biological target: T3, FnBPA (337-511), FnBPAN3 (S. aureus) (UniProt P14738); test: as above
T3 sequence: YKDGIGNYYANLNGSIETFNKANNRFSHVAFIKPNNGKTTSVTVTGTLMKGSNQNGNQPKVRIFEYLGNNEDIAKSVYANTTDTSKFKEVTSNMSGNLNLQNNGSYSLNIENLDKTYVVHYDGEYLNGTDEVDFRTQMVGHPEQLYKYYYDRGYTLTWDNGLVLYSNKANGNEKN

[6] = biological target: T1, full-length FnBPA on S. aureus FnBPA^(+) cells (S. aureus strain 8325-4); test: single-molecule force spectroscopy (AFM); Plg on the AFM tip (PEG-benzaldehyde linker) against living S. aureus cells trapped in porous membranes; PBS, 20°C, contact time 250 ms, applied force 250 pN, speed 1,000 nm s^-1; without Fg; only the binder purified
[7] = biological target: T1, full-length FnBPA on S. aureus FnBPA^(+) cells (S. aureus strain 8325-4); test: single-cell force spectroscopy (AFM); single living S. aureus cell on a polydopamine-coated colloidal cantilever against Plg coupled to a gold substrate (NHS/EDC); PBS, 20°C, contact time 1 s, applied force 250 pN, speed 1,000 nm s^-1; without Fg; only the binder purified

For human plasminogen (Plg), which binding [1] is on record?
The binding was “binds”.

And the binding [2]?
Its binding is “binds”.

What about the binding [3] of the same substance?
Its binding is “binds”.

What about the binding [4] of the same substance?
Its binding is “binds”.

And the binding [5]?
The binding was “no binding (tested: 1 μg/ml Plg)”.

What about the binding [6] of the same substance?
The binding was “binds weakly”.

What about the binding [7] of the same substance?
The binding was “binds”.

These are yes or no findings as the source states them, for the method shown. For some of these results: Binding calls can cover weak binding; strength is not graded here.
